Publication PMC12366701
No constants are given. Whether binding was seen depends on the method and setting. A result given as binding can be weak or reduced; the word gives no strength.

Sequences of proteins named here, by UniProt entry; tags and fusion partners are left off. A change or cut given only in a name is not applied to a line headed by its entry.
UniProt P07437: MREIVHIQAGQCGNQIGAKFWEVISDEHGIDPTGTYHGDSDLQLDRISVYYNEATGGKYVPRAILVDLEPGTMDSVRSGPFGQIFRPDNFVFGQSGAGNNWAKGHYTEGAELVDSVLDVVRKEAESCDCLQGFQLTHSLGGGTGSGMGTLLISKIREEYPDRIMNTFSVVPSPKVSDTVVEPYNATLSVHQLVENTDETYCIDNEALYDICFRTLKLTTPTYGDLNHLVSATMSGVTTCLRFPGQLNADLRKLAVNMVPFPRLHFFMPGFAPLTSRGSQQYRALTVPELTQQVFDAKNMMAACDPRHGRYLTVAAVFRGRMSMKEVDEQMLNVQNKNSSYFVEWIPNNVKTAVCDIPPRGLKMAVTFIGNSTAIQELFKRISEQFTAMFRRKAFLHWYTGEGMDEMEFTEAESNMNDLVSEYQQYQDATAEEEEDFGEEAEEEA
UniProt P68363: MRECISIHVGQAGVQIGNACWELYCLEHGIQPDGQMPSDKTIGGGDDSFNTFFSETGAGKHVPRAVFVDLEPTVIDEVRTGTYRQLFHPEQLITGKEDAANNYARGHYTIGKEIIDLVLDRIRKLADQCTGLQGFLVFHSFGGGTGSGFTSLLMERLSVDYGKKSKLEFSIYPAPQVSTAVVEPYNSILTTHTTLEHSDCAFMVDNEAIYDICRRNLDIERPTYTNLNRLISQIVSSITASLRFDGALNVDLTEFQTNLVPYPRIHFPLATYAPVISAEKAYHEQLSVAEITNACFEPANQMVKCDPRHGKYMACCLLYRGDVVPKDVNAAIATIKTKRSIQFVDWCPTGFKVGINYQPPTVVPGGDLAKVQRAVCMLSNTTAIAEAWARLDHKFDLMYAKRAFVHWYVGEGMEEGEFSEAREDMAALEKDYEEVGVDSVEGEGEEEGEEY
UniProt Q8NHH1: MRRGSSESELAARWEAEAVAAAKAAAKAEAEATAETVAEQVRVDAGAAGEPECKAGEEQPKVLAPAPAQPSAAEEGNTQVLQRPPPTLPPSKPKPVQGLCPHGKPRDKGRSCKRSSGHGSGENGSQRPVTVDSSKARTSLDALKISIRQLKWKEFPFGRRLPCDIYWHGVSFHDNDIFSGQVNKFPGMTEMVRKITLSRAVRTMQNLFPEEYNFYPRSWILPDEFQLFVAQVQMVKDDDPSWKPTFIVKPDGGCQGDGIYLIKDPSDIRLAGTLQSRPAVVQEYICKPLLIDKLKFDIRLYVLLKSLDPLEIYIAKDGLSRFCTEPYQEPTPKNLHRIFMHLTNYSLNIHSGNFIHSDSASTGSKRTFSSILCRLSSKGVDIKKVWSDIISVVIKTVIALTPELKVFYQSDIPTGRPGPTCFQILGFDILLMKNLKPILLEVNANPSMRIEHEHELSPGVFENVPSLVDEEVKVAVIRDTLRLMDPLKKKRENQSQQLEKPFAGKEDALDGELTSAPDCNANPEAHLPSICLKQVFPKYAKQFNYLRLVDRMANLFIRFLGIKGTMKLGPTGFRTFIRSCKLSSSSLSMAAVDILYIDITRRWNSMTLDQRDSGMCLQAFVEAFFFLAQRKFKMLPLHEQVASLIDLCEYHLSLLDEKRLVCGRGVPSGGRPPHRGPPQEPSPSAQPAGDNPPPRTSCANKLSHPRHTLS

Experiments:
[1] = target: human β-tubulin (TUBB-5) in the HEK293T microtubule lattice (human (endogenous in HEK293T)) (UniProt P07437); assay: cryo-EM structure; 10 μM TTLL11 (E441G) and 10 μM dsMTs from HEK293T tubulin in EM buffer (40 mM tris-HCl pH 7.0, 1 mM TCEP, 1 mM MgCl2, 5% glycerol); 14-protofilament MTs; both purified
[2] = target: human α-tubulin (TUBA1B) in the HEK293T microtubule lattice (human (endogenous in HEK293T)) (UniProt P68363); assay: as above

binding [1]: binds
binding [2]: binds
Substance: hTTLL11 (residues 128 to 657), TTLL11 (E441G) of the cryo-EM sample (from UniProt Q8NHH1) (enzyme)
